Measurements reported in PubChem BioAssay AID1053208 (Peter MacCallum Cancer Centre, 2014)
The deposit covers about 17,000 reagents; shown is an unselected part. 788 of all reagents (4.7%) count as active. 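Calls rest on z-score classes alone; an extra cut-off of viability at most 70% of control was not applied to them.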 Entries without a mark were called inactive. No sequences are given here.

- Test: 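Find knock-downs that sensitise mouse osteosarcoma cells to doxorubicin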 (primary screen)
- Cell system: mouse osteosarcoma cells, early-passage culture from an engineered mouse model of fibroblastic bone tumour
- Reagents: siRNA pool against mouse genes, 40 nM
- Time to read-out: about 120 h (48 h before drug, then 72 h with drug)
- Treatment: doxorubicin 100 nM for 72 h, roughly 30-40% inhibitory dose
- Measured: 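Luminescent ATP signal taken as viability with or without 100 nM doxorubicin for 72 h; mean of two wells set against non-targeting siRNA and turned into robust z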
- Scale: viability z-score with doxorubicin and doxorubicin viability vs non-targeting: higher = more viable cells under doxorubicin; viability z-score without drug: higher = more viable cells with knock-down alone; z-score of drug to no-drug ratio: higher = less drug sensitisation by knock-down
- Hit rule: 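Called active if knock-down leaves viability unchanged without drug (z within -2 to 2) but lowers it with doxorubicin (z at or under -2)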

no.	target gene	combined z-score class	viability z-score with doxorubicin	viability z-score without drug	z-score of drug to no-drug ratio	doxorubicin viability vs non-targeting
1	Or5b94	no change with or without drug	-1.24	-1.85	0.11	0.83
2	Syne4	no change with or without drug	0	-0.34	0.34	0.94
3	Fkbp10	no change with or without drug	0.45	1.18	-0.22	0.98
4	2410137M14Rik	no change with or without drug	0.67	1.52	-0.22	1
5	Dsn1	no change with or without drug	0.9	0.84	0.45	1.02
6	Meis2	no change with or without drug	0.67	0.17	0.67	1
7	Tfdp2	no change with or without drug	0.45	-0.34	0.79	0.98
8	Zfp367	no change with or without drug	-0.67	-0.51	-0.22	0.88
9	Bst2	low cell count with and without drug	-2.92	-2.53	-1.46	0.68
10	Tgm6	no change with or without drug	-0.67	-1.01	0.11	0.88
11	Id2	no change with or without drug	-0.67	-0.51	-0.22	0.88
12	Or51f1e	no change with or without drug	-0.45	-1.85	1.01	0.9
13	Sh2d1a	no change with or without drug	0	0.84	-0.45	0.94
14	Ephx3	no change with or without drug	-0.67	0.17	-0.67	0.88
15	Nt5c3b	no change with or without drug	0.9	-0.17	1.24	1.02
16	Dnajb5	high cell count without drug only	-0.56	2.02	-1.69	0.89
17	Socs4	no change with or without drug	-0.45	1.52	-1.24	0.9
18	Dexi	no change with or without drug	0.67	0.84	0.22	1
19	Lgi3	high cell count with doxorubicin only	2.02	1.35	1.24	1.12
20	Zfr	high cell count with and without drug	2.7	2.53	1.01	1.18
21	Nf1	high cell count with doxorubicin only	2.02	0.84	1.57	1.12
22	Rdh9	no change with or without drug	0.56	-0.84	1.35	0.99

Laid out differently: 9 of the entries above
Or51f1e: combined z-score class = no change with or without drug; viability z-score with doxorubicin = -0.45; viability z-score without drug = -1.85; z-score of drug to no-drug ratio = 1.01; doxorubicin viability vs non-targeting = 0.9
Sh2d1a: combined z-score class = no change with or without drug; viability z-score with doxorubicin = 0; viability z-score without drug = 0.84; z-score of drug to no-drug ratio = -0.45; doxorubicin viability vs non-targeting = 0.94
Ephx3: combined z-score class = no change with or without drug; viability z-score with doxorubicin = -0.67; viability z-score without drug = 0.17; z-score of drug to no-drug ratio = -0.67; doxorubicin viability vs non-targeting = 0.88
Nt5c3b: combined z-score class = no change with or without drug; viability z-score with doxorubicin = 0.9; viability z-score without drug = -0.17; z-score of drug to no-drug ratio = 1.24; doxorubicin viability vs non-targeting = 1.02
Dnajb5: combined z-score class = high cell count without drug only; viability z-score with doxorubicin = -0.56; viability z-score without drug = 2.02; z-score of drug to no-drug ratio = -1.69; doxorubicin viability vs non-targeting = 0.89
Socs4: combined z-score class = no change with or without drug; viability z-score with doxorubicin = -0.45; viability z-score without drug = 1.52; z-score of drug to no-drug ratio = -1.24; doxorubicin viability vs non-targeting = 0.9
Dexi: combined z-score class = no change with or without drug; viability z-score with doxorubicin = 0.67; viability z-score without drug = 0.84; z-score of drug to no-drug ratio = 0.22; doxorubicin viability vs non-targeting = 1
Lgi3: combined z-score class = high cell count with doxorubicin only; viability z-score with doxorubicin = 2.02; viability z-score without drug = 1.35; z-score of drug to no-drug ratio = 1.24; doxorubicin viability vs non-targeting = 1.12
Zfr: combined z-score class = high cell count with and without drug; viability z-score with doxorubicin = 2.7; viability z-score without drug = 2.53; z-score of drug to no-drug ratio = 1.01; doxorubicin viability vs non-targeting = 1.18

More entries:
no.	target gene	combined z-score class	viability z-score with doxorubicin	viability z-score without drug	z-score of drug to no-drug ratio	doxorubicin viability vs non-targeting
23	1700067P10Rik	high without drug; low with doxorubicin	-2.36	2.19	-3.37	0.73
24	Rhox5	low cell count with and without drug	-2.7	-2.02	-1.57	0.7
25	Dennd1b	no change with or without drug	0.56	-0.84	1.35	0.99
26	Ncdn	no change with or without drug	0.22	0.51	0	0.96
27	Or51ab3	high cell count without drug only	0.56	2.02	-0.56	0.99
28	Bloc1s5	no change with or without drug	0.45	-0.51	1.01	0.98
29	Pitpnb	no change with or without drug	1.57	0.34	1.46	1.08
30	Gas5	low cell count with doxorubicin only (active)	-2.02	-0.84	-1.57	0.76
31	Sim2	no change with or without drug	0	-0.51	0.45	0.94
32	Ptprf	no change with or without drug	1.8	0.34	1.69	1.1
33	Dhx40	no change with or without drug	0	0.51	-0.22	0.94
34	Ccdc60	no change with or without drug	-0.22	1.18	-0.9	0.92
35	4930578I06Rik	no change with or without drug	-0.9	-1.18	0	0.86
36	Heyl	no change with or without drug	1.01	0.84	0.56	1.03
37	Nudt14	no change with or without drug	-0.45	-0.51	0	0.9
38	Vps72	no change with or without drug	1.12	1.01	0.56	1.04
39	A030005L19Rik	no change with or without drug	0.67	1.18	0	1
40	Gpbp1	low cell count with doxorubicin only (active)	-2.36	0.84	-2.81	0.73
41	4933409K07Rik	high cell count with and without drug	2.47	5.23	-0.67	1.16
42	Gpld1	no change with or without drug	0.11	1.52	-0.79	0.95
43	Hrh1	low cell count without drug only	0	-2.36	2.02	0.94
44	Snrnp70	low cell count with and without drug	-3.93	-3.54	-2.02	0.59
45	Lrrc45	no change with or without drug	0.79	0.51	0.56	1.01
46	Myl6	no change with or without drug	0.67	-0.17	0.9	1
47	Csnk1g1	no change with or without drug	-1.12	-1.01	-0.45	0.84
48	Flvcr2	no change with or without drug	0.11	-0.51	0.56	0.95
49	Inpp5d	no change with or without drug	0.45	0.84	0	0.98
50	Samd9l	no change with or without drug	0.45	0	0.56	0.98
51	Stap2	low cell count with doxorubicin only (active)	-4.05	0.34	-4.27	0.58
52	Bsg	no change with or without drug	-0.9	-1.18	0	0.86
53	Tex21	no change with or without drug	0.67	-0.17	0.9	1
54	Slc66a2	low cell count with doxorubicin only (active)	-2.02	-0.34	-1.8	0.76
55	Gpr84	low cell count with doxorubicin only (active)	-2.02	0.17	-2.14	0.76
56	Gmip	no change with or without drug	0.56	-0.17	0.79	0.99
57	Zdhhc12	no change with or without drug	1.46	0.34	1.35	1.07
58	Atrx	no change with or without drug	-0.67	0.17	-0.67	0.88
59	Sema3a	no change with or without drug	0.22	0.34	0.11	0.96
60	Or5w16	no change with or without drug	0.67	0.17	0.67	1
61	Or5l13	no change with or without drug	-0.45	0.51	-0.67	0.9
62	Kcne4	no change with or without drug	-1.12	0.51	-1.35	0.84
63	Myom2	no change with or without drug	1.8	0.34	1.69	1.1
